Consider 4 molecules from PMC12130296.

Amino acid sequences for entries named in this document (tags omitted). A change or cut given only in a name is not applied to a line headed by its entry.
UniProt Q13158: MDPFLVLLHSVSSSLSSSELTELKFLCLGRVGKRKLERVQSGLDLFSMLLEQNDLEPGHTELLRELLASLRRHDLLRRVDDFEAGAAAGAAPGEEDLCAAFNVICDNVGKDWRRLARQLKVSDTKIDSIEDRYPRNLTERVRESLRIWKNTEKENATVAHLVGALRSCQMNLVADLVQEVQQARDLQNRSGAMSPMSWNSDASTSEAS
UniProt Q9Y572: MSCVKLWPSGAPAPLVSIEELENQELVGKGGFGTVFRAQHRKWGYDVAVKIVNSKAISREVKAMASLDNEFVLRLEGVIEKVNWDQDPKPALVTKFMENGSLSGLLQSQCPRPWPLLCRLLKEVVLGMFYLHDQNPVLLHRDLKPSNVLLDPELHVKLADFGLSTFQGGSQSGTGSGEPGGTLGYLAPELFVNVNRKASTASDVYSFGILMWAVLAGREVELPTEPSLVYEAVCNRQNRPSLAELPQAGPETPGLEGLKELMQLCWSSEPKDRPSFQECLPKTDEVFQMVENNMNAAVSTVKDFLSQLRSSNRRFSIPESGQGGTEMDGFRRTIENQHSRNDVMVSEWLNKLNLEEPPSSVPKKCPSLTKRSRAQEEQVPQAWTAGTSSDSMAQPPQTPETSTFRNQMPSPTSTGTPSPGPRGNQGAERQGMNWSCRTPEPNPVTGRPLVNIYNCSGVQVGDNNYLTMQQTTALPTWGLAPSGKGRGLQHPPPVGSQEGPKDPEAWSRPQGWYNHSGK
UniProt P48023: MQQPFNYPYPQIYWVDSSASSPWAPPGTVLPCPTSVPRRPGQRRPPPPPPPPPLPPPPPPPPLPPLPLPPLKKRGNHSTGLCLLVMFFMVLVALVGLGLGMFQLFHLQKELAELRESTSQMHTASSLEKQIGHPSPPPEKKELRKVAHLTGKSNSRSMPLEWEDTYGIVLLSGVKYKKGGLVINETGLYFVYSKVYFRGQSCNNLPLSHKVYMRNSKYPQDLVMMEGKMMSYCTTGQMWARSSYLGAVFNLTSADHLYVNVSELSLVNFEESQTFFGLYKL

These are yes or no findings as the source states them, for the method shown. Binding seen in cells or lysates may run through a third protein. A yes stands for co-enrichment or nearness to the bait. Other partners may have been found. For some assays here: A no says only that the protein was not detected with the bait.

Assay [1] addresses T1, MLKL (human (endogenous in HT29, SUIT-020 and Jurkat)) (UniProt Q8NB16).
T1 sequence: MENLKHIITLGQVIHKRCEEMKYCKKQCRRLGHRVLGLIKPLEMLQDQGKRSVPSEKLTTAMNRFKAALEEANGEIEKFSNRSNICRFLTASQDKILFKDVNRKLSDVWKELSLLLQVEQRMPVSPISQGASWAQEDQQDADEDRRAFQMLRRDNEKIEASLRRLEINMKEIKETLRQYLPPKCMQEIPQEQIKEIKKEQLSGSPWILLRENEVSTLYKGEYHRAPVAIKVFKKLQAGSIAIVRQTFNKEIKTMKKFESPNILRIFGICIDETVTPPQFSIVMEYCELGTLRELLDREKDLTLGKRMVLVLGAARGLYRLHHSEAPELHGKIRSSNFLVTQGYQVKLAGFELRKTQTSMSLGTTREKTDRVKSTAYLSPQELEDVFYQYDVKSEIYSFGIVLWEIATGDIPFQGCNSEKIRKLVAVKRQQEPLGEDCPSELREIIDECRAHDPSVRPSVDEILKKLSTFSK
The assay can be described thus: affinity purification with mass spectrometry; quantitative AQUA peptide analysis (100 fmol of each heavy peptide) of pRIPK1-, FADD-, c-FLIP- and MLKL-IPs from HT29 cells and pRIPK1- and FADD-IPs from SUIT-020 cells after CD95L/BV6/zVAD-fmk.

The target in assay [2] is FADD (human (endogenous in HT29, SUIT-020 and Jurkat)) (UniProt Q13158). Briefly: affinity purification with mass spectrometry; qualitative analysis of pRIPK1-, FADD- and c-FLIP-IPs from HT29 cells, BV6/zVAD-fmk 1 h then 500 ng/ml CD95L 5 h; untreated and beads-only controls.
Assay [3] concerns the target phosphorylated form of RIPK1 (pRIPK1) (human (endogenous in HT29, SUIT-020 and Jurkat)) (UniProt Q13546). The assay is described as above.
Assay [4] deals with FADD (human (endogenous in HT29, SUIT-020 and Jurkat)) (UniProt Q13158). Briefly: affinity purification with mass spectrometry; quantitative AQUA peptide analysis (100 fmol of each heavy peptide) of pRIPK1-, FADD-, c-FLIP- and MLKL-IPs from HT29 cells and pRIPK1- and FADD-IPs from SUIT-020 cells after CD95L/BV6/zVAD-fmk.
The target in assay [5] is phosphorylated form of RIPK1 (pRIPK1) (human (endogenous in HT29, SUIT-020 and Jurkat)) (UniProt Q13546). The description is as above.
Assay [6] concerns the target T2, MLKL (human (endogenous in HT29, SUIT-020 and Jurkat)), Q8NB16.
T2 chain: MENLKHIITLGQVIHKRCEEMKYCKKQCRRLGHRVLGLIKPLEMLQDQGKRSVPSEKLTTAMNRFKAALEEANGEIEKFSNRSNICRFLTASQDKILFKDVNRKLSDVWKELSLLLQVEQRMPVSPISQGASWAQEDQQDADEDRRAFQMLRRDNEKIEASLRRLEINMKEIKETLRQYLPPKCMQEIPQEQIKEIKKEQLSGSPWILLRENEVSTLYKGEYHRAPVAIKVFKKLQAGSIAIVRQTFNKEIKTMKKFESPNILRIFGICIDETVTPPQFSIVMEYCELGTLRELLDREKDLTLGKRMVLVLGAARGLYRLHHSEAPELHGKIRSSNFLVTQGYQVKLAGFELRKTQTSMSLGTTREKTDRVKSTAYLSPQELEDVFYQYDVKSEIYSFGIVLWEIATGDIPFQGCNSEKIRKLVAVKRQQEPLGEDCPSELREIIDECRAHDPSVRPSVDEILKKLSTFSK
The description is as above. As to conditions: remark: other sources report otherwise.

With FADD (from UniProt Q13158 1-208), in assay [1], the binding result is recorded as “binds”.
For the molecule RIPK3 (from UniProt Q9Y572 1-518), the binding result in assay [2], in assay [3], in assay [4] and in assay [5] was “binds” throughout.
With “Recombinant LZ-CD95L (from UniProt P48023) (ligand)”, the binding entry in assay [2] and in assay [3] was “no binding” in each case.

B1: RIPK1, Q13546 1-671 (protein)
chain: MQPDMSLNVIKMKSSDFLESAELDSGGFGKVSLCFHRTQGLMIMKTVYKGPNCIEHNEALLEEAKMMNRLRHSRVVKLLGVIIEEGKYSLVMEYMEKGNLMHVLKAEMSTPLSVKGRIILEIIEGMCYLHGKGVIHKDLKPENILVDNDFHIKIADLGLASFKMWSKLNNEEHNELREVDGTAKKNGGTLYYMAPEHLNDVNAKPTEKSDVYSFAVVLWAIFANKEPYENAICEQQLIMCIKSGNRPDVDDITEYCPREIISLMKLCWEANPEARPTFPGIEEKFRPFYLSQLEESVEEDVKSLKKEYSNENAVVKRMQSLQLDCVAVPSSRSNSATEQPGSLHSSQGLGMGPVEESWFAPSLEHPQEENEPSLQSKLQDEANYHLYGSRMDRQTKQQPRQNVAYNREEERRRRVSHDPFAQQRPYENFQNTEGKGTAYSSAASHGNAVHQPSGLTSQPQVLYQNNGLYSSHGFGTRPLDPGTAGPRVWYRPIPSHMPSLHNIPVPETNYLGNTPTMPFSSLPPTDESIKYTIYNSTGIQIGAYNYMEIGGTSSSLLDSTNTNFKEEPAAKYQAIFDNTTSLTDKHLDPIRENLGKHWKNCARKLGFTQSQIDEIDHDYERDGLKEKVYQMLQKWVMREGIKGATVGKLAQALHQCSRIDLLSSLIYVSQN
For the molecule B1, the binding result in assay [6] was “binds”.
